The list shows a part of the results.

This assay concerns the target T1, OsSMF1 (Oryza sativa, UniProt Q6ZLB0 1-436).
T1 sequence: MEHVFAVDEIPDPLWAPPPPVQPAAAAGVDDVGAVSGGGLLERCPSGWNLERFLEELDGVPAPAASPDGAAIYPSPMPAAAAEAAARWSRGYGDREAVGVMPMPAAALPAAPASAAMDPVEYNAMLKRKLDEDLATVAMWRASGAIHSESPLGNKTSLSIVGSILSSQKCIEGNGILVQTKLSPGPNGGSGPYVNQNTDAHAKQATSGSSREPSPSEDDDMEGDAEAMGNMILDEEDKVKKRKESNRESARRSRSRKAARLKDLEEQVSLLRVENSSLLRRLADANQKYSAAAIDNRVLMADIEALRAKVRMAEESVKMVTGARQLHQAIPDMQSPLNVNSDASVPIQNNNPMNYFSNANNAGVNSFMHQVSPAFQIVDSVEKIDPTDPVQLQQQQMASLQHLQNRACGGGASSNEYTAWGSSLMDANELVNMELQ
As to the kind of experiment: protein-binding microarray (RPBM); PBS, 2% BSA, 51.3 ng/ul salmon testes DNA, 50 uM zinc acetate, 200 nM TF, 25 C, 1 h; high values mean tight binding. The conditions noted are these: protein: recombinant; tags: N-terminal polyhistidine and DsRed monomer fusion (pET32a); chain copies: 2; label: CyDye5-dUTP incorporated in the synthesized complementary strand; 3' TTTTT single-stranded linker to array surface; dsDNA, one strand shown. The procedure, abridged: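 Per-feature fluorescence intensity (arbitrary units), read on an Axon 4000B scanner, is the binding signal. Transcription factors carrying an N-terminal polyhistidine tag and DsRed fusion were expressed in E. coli BL21-CodonPlus and purified on Ni–NTA. A custom Agilent array, made double-stranded by primer extension with Cy5-dUTP and blocked with 2% BSA, was incubated with 200 nM protein in PBS, 2% BSA, salmon testes DNA and 50 µM zinc acetate at 25 °C for 1 h and then washed.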
For “GTTTGATTAGGGTAGATAGAGAGAGAGGGGTTGGGTTTGGCGGAGTCACCTAGTGCAG”, the binding signal was 3390 fluorescence intensity (a.u.).
With “TTAGATGAAACCACGATTTGTCAAAATGCATCCAAAACTTCGGAGTCACCTAGTGCAG”, the binding signal was 43100 fluorescence intensity (a.u.).
Regarding “TTAAACGGGCTTTAAGGTAGAAAGTACACGTGGACTGCAACGGAGTCACCTAGTGCAG”, the binding signal is 10100 fluorescence intensity (a.u.).
Take “TCCACTGCGCACTGTCACCTTCCTATATAAACGGCCACCCCGGAGTCACCTAGTGCAG”: the binding signal was 3170 fluorescence intensity (a.u.).
The figure for “CCCTCCTTGTCCCGCCTGGTGACGATTTCCATGGGCATTGCGGAGTCACCTAGTGCAG” is 3760 fluorescence intensity (a.u.).
On to “CGCGCGCGCGTGGCAGCTGACGTGGCGAGTACTGGTGGGGCGGAGTCACCTAGTGCAG”, for which the binding signal is 30400 fluorescence intensity (a.u.).
On to “AATTTACAAGATCACACCAGCATCGTCAGAGGTTAACCTACGGAGTCACCTAGTGCAG”, for which the binding signal is 3680 fluorescence intensity (a.u.).
In the case of “AAGCTCTCATGTCAGACAGTCAGCGGCTGAAGCTTTGTGACGGAGTCACCTAGTGCAG”, the binding signal was 5500 fluorescence intensity (a.u.).
For “CATTTAGGATCTTATGTGAGTCAGATGGCATATTTCTTCCCGGAGTCACCTAGTGCAG”, the binding signal was 3770 fluorescence intensity (a.u.).
On to “CCTCTAGAACTCCATGCACGTTCGGTTCTGTCCCTAGCACCGGAGTCACCTAGTGCAG”, for which the binding signal was 29300 fluorescence intensity (a.u.).
With “CAAACTTTGAGAGGAAACATAATTTAATTAGTTGATTAAGCGGAGTCACCTAGTGCAG”, the binding signal is 3570 fluorescence intensity (a.u.).
Regarding “ACAAGCTCGGTGTCTTCTTGAACGGTCCGCGTCACCGGCGCGGAGTCACCTAGTGCAG”, the binding signal was 8870 fluorescence intensity (a.u.).
Consider “AGAGCCAACTGGTCGATCTCCAGTGAGTCAGTGACCTAATCGGAGTCACCTAGTGCAG”, for which the binding signal was 4470 fluorescence intensity (a.u.).
Turning to “ACTTGACGAGTCCGACCACTGGCGTCAGTTGCGCCGCCTGCGGAGTCACCTAGTGCAG”, the binding signal is 3490 fluorescence intensity (a.u.).
With “AGCAGTCAAAGGAGTGGCCGAAGTGGGGACCATCTTCCTCCGGAGTCACCTAGTGCAG”, the binding signal is 3210 fluorescence intensity (a.u.).
As for “AAGTTGTGCAAGTACATTGACGTGGGCACAGTGGCGTCCACGGAGTCACCTAGTGCAG”, the figure is 6800 fluorescence intensity (a.u.); as for “GAGACGACGAGTCGGACATGACACGTTCAGGCTCATTTCCCGGAGTCACCTAGTGCAG”, 3200 fluorescence intensity (a.u.).
As for “TTCCGACCGAAACCGTACGTGGCGTTCACTTCACCGTGGGCGGAGTCACCTAGTGCAG”, the figure is 6200 fluorescence intensity (a.u.); as for “ATCCTGTCACGGTCAGCCACGTCGCGGAGGGCAGTGCGACCGGAGTCACCTAGTGCAG”, 4580 fluorescence intensity (a.u.); as for “CCCTCTCCTCACGTGTTGCTAGCGCCGATGTCACCTCTCGCGGAGTCACCTAGTGCAG”, 4640 fluorescence intensity (a.u.).
As for “GTTGCCAAAAGTACACATGTCACGCAAGCACGCGACTCACCGGAGTCACCTAGTGCAG”, the figure is 4670 fluorescence intensity (a.u.); as for “CCGAGACCAAGCTATCTTCAACTTGACTCATTAATAGCAACGGAGTCACCTAGTGCAG”, 4360 fluorescence intensity (a.u.); as for “AACTCCTCCTTGAAGGGCCTGGGCTTCATCTCTATCTCTACGGAGTCACCTAGTGCAG”, 4180 fluorescence intensity (a.u.).
As to “ACATGCCCATGCGCGACACGTGCACCTCCTCATCCAAACTCGGAGTCACCTAGTGCAG”, the binding signal was 5600 fluorescence intensity (a.u.).
As for “TATTGATCGCGTCAGCTTCCACTTGCGTTGTTCTTTGCGGCGGAGTCACCTAGTGCAG”, the binding signal was 7120 fluorescence intensity (a.u.).
“ACAGAAGTCCAAGATACACAGTGCTACTAGAAAGCCGTATCGGAGTCACCTAGTGCAG”: the binding signal is 3260 fluorescence intensity (a.u.).
In the case of “ATTGCCAGGTGCCCGGTACTCCGGTAGGGTCAGGGCGGATCGGAGTCACCTAGTGCAG”, the binding signal was 3430 fluorescence intensity (a.u.).
For the sequence “TCTTAGTATGAGCTTGGTTCGTGGCTTTAGGCTGCCTACCCGGAGTCACCTAGTGCAG”, the binding signal is 6700 fluorescence intensity (a.u.).
Consider “TTCCCTCCCTACTGTCTCTGGTTCTCTGCTCCTCCACTTCCGGAGTCACCTAGTGCAG”, for which the binding signal was 25000 fluorescence intensity (a.u.).
As for “GGTCCCCTCCACTCTCCATGTCATCGGCTGACACATAGGGCGGAGTCACCTAGTGCAG”, the figure is 5100 fluorescence intensity (a.u.); as for “CCTGGCCGGCTGCTGACCAGGCAATCCGTGTCGTAGTGGTCGGAGTCACCTAGTGCAG”, 7050 fluorescence intensity (a.u.); as for “GACTAGTCATAATATCTTATGACTCATTCTTATGGTATATCGGAGTCACCTAGTGCAG”, 8510 fluorescence intensity (a.u.).
On to “CCTGTTGAGGTTGTCAGCAAGGCAGGGACTATTGTCGCCGCGGAGTCACCTAGTGCAG”, for which the binding signal was 4090 fluorescence intensity (a.u.).
As for “TACTAAGCACAATATACAAGTGTGTCACATCATCACCCACCGGAGTCACCTAGTGCAG”, the figure is 3620 fluorescence intensity (a.u.); as for “GTAGGCGCCACGTGGCGCCACGTCAGCAAAACCGCCTCCTCGGAGTCACCTAGTGCAG”, 24000 fluorescence intensity (a.u.).
The figure for “CGTCTCCTGCTCGAGTCATCGTCCCCACTGCGTGCACAAGCGGAGTCACCTAGTGCAG” is 4000 fluorescence intensity (a.u.); for “AATTTTGACATGCCTAAGAAAATAGGCCATTTCAACCGTTCGGAGTCACCTAGTGCAG” it is 18600 fluorescence intensity (a.u.).
As to “TAAATATGCAGTGTCCCTCTGATGACTAATGCAAATCAGTCGGAGTCACCTAGTGCAG”, the binding signal is 3940 fluorescence intensity (a.u.).
As to “TTCGTTTCTTATGTAACACGTGGATGAAAATTTAGATTTTCGGAGTCACCTAGTGCAG”, the binding signal is 8280 fluorescence intensity (a.u.).
As for “GCAACGGAAGAGATGAGGAGATGACTCGGATGAGCGGAAGCGGAGTCACCTAGTGCAG”, the figure is 3180 fluorescence intensity (a.u.).
The figure for “ATTAAGCATGCTCATGTTATACACATCTAGCGCTGTTACTCGGAGTCACCTAGTGCAG” is 3170 fluorescence intensity (a.u.); for “AGAAGCGAACGTGGCAACCTTCCCTGGGCCCCACCCCTCCCGGAGTCACCTAGTGCAG” it is 9260 fluorescence intensity (a.u.).

Source of the values: publication PMC7819943, “Rice protein-binding microarrays: a tool to detect cis-acting elements near promoter regions in rice”.
